Results are given in words; binding and its absence hold for the method and conditions named. Some binding calls cover weakened binding; strength is not graded here.
Molecular target: interleukin-6 (IL-6) (UniProt P05231)
Test: ELISA

By UniProt entry, the sequences of proteins in these tests, tags left out. Residues count along the entry.
UniProt P05231, residues 30-212: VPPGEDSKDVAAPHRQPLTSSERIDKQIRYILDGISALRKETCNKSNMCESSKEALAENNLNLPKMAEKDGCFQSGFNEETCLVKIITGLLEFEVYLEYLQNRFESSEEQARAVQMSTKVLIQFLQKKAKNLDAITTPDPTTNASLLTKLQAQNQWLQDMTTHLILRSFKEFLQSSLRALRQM

B1: siltuximab immunoglobulin (IgG) (antibody, V domains shown)
VH: EVQLVESGGKLLKPGGSLKLSCAASGFTFSSFAMSWFRQSPEKRLEWVAEISSGGSYTYYPDTVTGRFTISRDNAKNTLYLEMSSLRSEDTAMYYCARGLWGYYALDYWGQGTSVTVSS
VL: QIVLIQSPAIMSASPGEKVTMTCSASSSVSYMYWYQQKPGSSPRLLIYDTSNLASGVPVRFSGSGSGTSYSLTISRMEAEDAATYYCQQWSGYPYTFGGGTKLEIKR
notes: Tested as parental IgG; also called siltuximab IgG; CNTO-328
With B1 the binding was “binds”.

B2: clazakizumab IgG (antibody, V domains shown)
VH: EVQLVESGGGLVQPGGSLRLSCAASGFSLSNYYVTWVRQAPGKGLEWVGIIYGSDETAYATSAIGRFTISRDNSKNTLYLQMNSLRAEDTAVYYCARDDSSDWDAKFNLWGQGTLVTVSS
VL: AIQMTQSPSSLSASVGDRVTITCQASQSINNELSWYQQKPGKAPKLLIYRASTLASGVPSRFSGSGSGTDFTLTISSLQPDDFATYYCQQGYSLRNIDNAFGGGTKVEIKR
notes: Tested as parental IgG
In the case of B2, the binding is reported as “binds”.

B3: olokizumab IgG (antibody, V domains shown)
VH: EVQLVESGGGLVQPGGSLRLSCAASGFNFNDYFMNWVRQAPGKGLEWVAQMRNKNYQYGTYYAESLEGRFTISRDDSKNSLYLQMNSLKTEDTAVYYCARESYYGFTSYWGQGTLVTVSS
VL: DIQMTQSPSSLSASVGDRVTITCQASQDIGISLSWYQQKPGKAPKLLIYNANNLADGVPSRFSGSGSGTDFTLTISSLQPEDFATYYCLQHNSAPYTFGQGTKLEIKR
notes: Tested as parental IgG; also called CDP6038
B3 was tested, and the binding was “binds”.

Source: patent US20260209339A1 (RADIANT BIOTHERAPEUTICS, published 2026)
